Percent effect of library compounds

Sequences of proteins named here, by UniProt entry; tags and fusion partners are left off.
UniProt P9WFT3, whole entry: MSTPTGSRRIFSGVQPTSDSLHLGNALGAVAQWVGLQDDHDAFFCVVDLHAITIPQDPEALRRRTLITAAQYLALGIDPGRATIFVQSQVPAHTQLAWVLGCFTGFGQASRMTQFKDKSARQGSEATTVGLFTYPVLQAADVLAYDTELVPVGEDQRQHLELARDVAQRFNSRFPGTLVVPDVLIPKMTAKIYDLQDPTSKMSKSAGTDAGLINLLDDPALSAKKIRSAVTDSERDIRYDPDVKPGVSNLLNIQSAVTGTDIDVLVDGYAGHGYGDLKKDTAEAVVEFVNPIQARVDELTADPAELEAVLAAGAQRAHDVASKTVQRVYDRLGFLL

Data taken from ChEMBL document CHEMBL3988442, “University of Dundee, Small-Polar-MMV Screening Library” (2021).

A: 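Tryptophan-tRNA ligase, Mycobacterium tuberculosis (UniProt P9WFT3). Enzyme assay of tryptophanyl-tRNA synthetase; the read-out is not stated. Compounds at 10 µM. Direction is not recorded; retested compounds ran higher, which suggests that high means inhibition. Of about 65,000 compounds tested this way, about 64 (0.098%) reached 50% or more in at least one test.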
B: 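Cell assay of Leishmania donovani living inside macrophages; the read-out is not stated. Tested at 30 µM. The record gives no direction; compounds that gave an IC50 in retests scored well above the rest, so higher reads as stronger inhibition. Size under these conditions: about 69,000 compounds, about 1,000 of them at 50% or above in at least one test.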

Each number is a percent effect as filed. The record does not define 0% and 100%; most values in the screen are far below 50% and negative numbers occur (in some assays of this library far below -100). This is an unselected part of the compounds tested. Two or more numbers in one place are separate tests of the same structure; such repeats can differ widely.

With [H][C@@]12CCCO[C@]1([H])[C@@H](OC)CN2S(=O)(=O)c1cn(C)cn1 the screen gave B: 29.7%.
With Cc1cc(N(C)C)nc(N2CCn3c(nnc3C(C)C)C2)n1 the screen gave A: -0.7389%; B: -27.77%.
With CSCCC(C)(O)CNC(=O)Nc1ccccc1C (stereo not shown) the screen gave A: 2.508%; B: 19.67% & 17.21%.
With Cc1cc(F)ccc1CN1CCCC(O)(CN2CCCC2)C1 (stereo not shown) the screen gave A: -4.329%; B: 37.99%.
With Cc1ncsc1C(=O)NCCSCCCO the screen gave A: -1.263%; B: -15.71%.
With Cc1nn(C)c2c(N3CCN(C(=O)NC4CCCCC4)CC3)ncnc12 the screen gave A: -1.809%; B: -25.27%.
With O=C1CC(c2cccnc2)C2(CCN(S(=O)(=O)C3CC3)CC2)N1 (stereo not shown) the screen gave A: 2.354%.
With c1ncn(Cc2nnc(C3CCN(C4CCOCC4)CC3)n2C2CC2)n1 the screen gave A: -3.311%; B: 8.308%.
With CC(C)NC(=O)[C@H]1C[C@@H]2CN(C(=O)NCCc3ccccc3)C[C@H]1O2 the screen gave A: 2.616%.
With O=C(Cc1ccc2c(c1)OCCO2)NCCc1nnc2n1CCC2 the screen gave A: 0.8607%; B: -9.696%.
With COCC(=O)N1CCC2(COCc3cnc(N4CCOCC4)nc32)C1 (stereo not shown) the screen gave A: -2.189%; B: 3.959%.
With CCO[C@@H]1CO[C@@]2(CCN(Cc3ccc4c(c3)OCO4)C2)C1.O=C(O)C(F)(F)F the screen gave B: 22.42%.
With O=C(O)C(F)(F)F.O=C(O)C(F)(F)F.[H][C@@]12CCN(Cc3ccc(F)cc3)[C@]1([H])CC[C@H](COCc1cccnc1)O2 the screen gave B: 45.18%.
With CNC(=O)CN1CCOCC2(CN(CCC(F)(F)F)CCO2)C1.O=C(O)C(F)(F)F.O=C(O)C(F)(F)F (stereo not shown) the screen gave B: -0.05332%.
With COC(=O)CN(C(=O)c1ccc(-n2ccnc2)cc1)C1CC1 the screen gave A: 0.4599%; B: 19.28%.
With COCc1n[nH]c2c1CN(C(=O)c1ccncc1)C2.O=C(O)C(F)(F)F the screen gave B: 11.83%.
With COCCn1ccc(NC(=O)Nc2ccccc2)n1 the screen gave A: 3.133%; B: 8.811%.
With CCN1CC2(CCC1=O)CCN(Cc1cccc(C#N)c1)CC2 the screen gave A: 0.1837%; B: 10.76%.
With COc1cccc(CN2CCCC3(CCN(C(=O)[C@H]4CCCO4)C3)C2)c1 (stereo partly shown) the screen gave A: 1.298%; B: 29.96%.
With Cc1ccc(NC(C)C(=O)NCc2cccs2)cc1Cl (stereo not shown) the screen gave A: -3.837%; B: 14.41%.
With CNS(=O)(=O)c1cc(C(=O)NC2CCOc3ccccc32)cc(C)c1C (stereo not shown) the screen gave A: 3.284%; B: 18.03%.
With COCCS(=O)(=O)Cc1csc(NC(C)=O)n1 the screen gave A: 1.711%; B: 24.77%.

The first 2 entries again:

[H][C@@]12CCCO[C@]1([H])[C@@H](OC)CN2S(=O)(=O)c1cn(C)cn1 gave B: 29.7%.
Cc1cc(N(C)C)nc(N2CCn3c(nnc3C(C)C)C2)n1 gave A: -0.7389%; B: -27.77%.